# Measurements taken from the supplement of paper PMC9135407.
# “And” between values parts separate entries of the source, which are not always exact repeats. Equal values may be shown once. Where a name gives a salt, the structure may show the parent alone. ± gives the standard deviation of the averaged measurements. The list shows a part of the results. Plates or batches differ in their baseline, so values are only roughly comparable.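 Culture-activated primary human stellate myofibroblasts, where regained lipid droplets signal inactivation. Value: share of Hoechst-counted cells above a per-plate Bodipy cutoff, in duplicate wells, with DMSO negative and nortriptyline positive controls on each plate. Hits: a control-normalized score above the plate's top-tenth-percentile nortriptyline wells, or one of a plate's three best wells. Final well concentrations are not given.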
# Tested on: primary human hepatic stellate cells (donor 1)
# Experiment: percent Bodipy-positive cells; higher = more lipid droplet accumulation
# Settings: 48 h
# [1] = library stock concentration: 3.33 mM
# [2] = library stock concentration: 10 mM
# [3] = library stock concentration: 2 mM
# [4] = library stock concentration: 80 uM
# [5] = library stock concentration: 400 uM
compound,measurement,setting,value
CCc1ccc(CCOc2ccc(CC3SC(=O)NC3=O)cc2)nc1 (stereo not drawn) [Pioglitazone],percent Bodipy-positive cells,[1],9.89 ± 1.4%
same,percent Bodipy-positive cells,[2],20.5 ± 8.1%
CCc1ccc(CCOc2ccc(CC3SC(=O)NC3=O)cc2)nc1 (stereo not drawn),percent Bodipy-positive cells,[2],10.2 ± 2.9%
CCc1ccc(CCOc2ccc(CC3SC(=O)NC3=O)cc2)nc1 (stereo not drawn) [Pioglitazone HCl],percent Bodipy-positive cells,[1],12.1 ± 1.6%
same,percent Bodipy-positive cells,[2],17.3 ± 4.1%
CCc1ccc(CCOc2ccc(CC3SC(=O)NC3=O)cc2)nc1 (stereo not drawn) [Pioglitazone hydrochloride],percent Bodipy-positive cells,library stock concentration: 5.1 mM,14.9 ± 8.4%
same,percent Bodipy-positive cells,[2],44.8 ± 11%
O=C(O)c1ccccc1-c1c2cc(I)c(=O)c(I)c-2oc2c(I)c(O)c(I)cc12,percent Bodipy-positive cells,[2],33.3 ± 0.84%
Cc1[nH]c(/C=C2\C(=O)Nc3ccc(S(=O)(=O)N(C)c4cccc(Cl)c4)cc32)c(C)c1C(=O)N1CCN(C)CC1 [Met Kinase Inhibitor],percent Bodipy-positive cells,[1],100%
CNC[C@@H](O)c1ccc(O)c(O)c1 [L-Adrenaline],percent Bodipy-positive cells,[1],5.76 ± 0.41%
same,percent Bodipy-positive cells,[2],9.52 ± 2.9%
O=C1c2c(O)cc(CO)cc2C(OC2OC(CO)C(O)C(O)C2O)c2cccc(OC3OC(CO)C(O)C(O)C3O)c21 (stereo not drawn) [CASANTHRANOL [cascaroside A shown]],percent Bodipy-positive cells,[2],26.1 ± 7.3%
COc1c(C)cnc(Cn2cnc3c(Cl)nc(N)nc32)c1C,percent Bodipy-positive cells,[1],64.7 ± 5.3%
Cc1ccc(S(=O)(=O)C=CC#N)cc1,percent Bodipy-positive cells,[1],99.6 ± 0.56%
same,percent Bodipy-positive cells,[2],67.1 ± 14%
"CN(C)C/C=C/C(=O)Nc1cc2c(Nc3ccc(F)c(Cl)c3)ncnc2cc1O[C@H]1CCOC1 [Afatinib  (TOVOK,  BIBW-2992) (2 mM)]",percent Bodipy-positive cells,[3],100%
Cc1ccc(N(CC2=NCCN2)c2cccc(O)c2)cc1 [Phentolamine Mesylate],percent Bodipy-positive cells,[1],11.22 ± 0.099%
same,percent Bodipy-positive cells,[2],37.5 ± 10%
Cc1ccc(N(CC2=NCCN2)c2cccc(O)c2)cc1 [Phentolamine?Mono-hydrochloride],percent Bodipy-positive cells,[2],69.14 ± 0.42%
Cc1ccc(N(CC2=NCCN2)c2cccc(O)c2)cc1 [Phentolamine mesylate],percent Bodipy-positive cells,[2],27.4 ± 4.9%
Cc1ccc(N(CC2=NCCN2)c2cccc(O)c2)cc1 [PhentolamineHCl],percent Bodipy-positive cells,library stock concentration: 7.1 mM,10.7 ± 0.43%
Cc1ccc(N(CC2=NCCN2)c2cccc(O)c2)cc1 [Phentolamine hydrochloride],percent Bodipy-positive cells,,32.9 ± 1.4%
same,percent Bodipy-positive cells,library stock concentration: 6.3 mM,32.4 ± 6.3%
same,percent Bodipy-positive cells,[2],19.5 ± 3.5%
Cc1ccc(N(CC2=NCCN2)c2cccc(O)c2)cc1 [Phentolamine],percent Bodipy-positive cells,library stock concentration: 17.8 mM,42 ± 4.1%
Clc1ccc2c(c1)C(N1CCNCC1)=Nc1ccccc1O2 [Amoxapine],percent Bodipy-positive cells,library stock concentration: 6.4 mM,70.5 ± 15%
Clc1ccc2c(c1)C(N1CCNCC1)=Nc1ccccc1O2,percent Bodipy-positive cells,[2],92.16 ± 0.15%
COc1cc(O)c2c(c1)/C=C/C[C@H](O)[C@H](O)C(=O)/C=C\C[C@H](C)OC2=O [5z-7-oxozeaenol],percent Bodipy-positive cells,[4],6.05 ± 2.4%
same,percent Bodipy-positive cells,[5],6.24 ± 0.41%
same,percent Bodipy-positive cells,[3],5.09 ± 0.87%
same,percent Bodipy-positive cells,[2],60.9 ± 11%
O=C(O)CCCc1c[nH]c2ccccc12 [3-Indolebutyric acid (IBA)],percent Bodipy-positive cells,[1],11.832 ± 0.0064%
same,percent Bodipy-positive cells,[2],17 ± 2.9%
O=C(c1cc(Cc2n[nH]c(=O)c3ccccc23)ccc1F)N1CCN(C(=O)C2CC2)CC1,percent Bodipy-positive cells,[1],4.61 ± 4.7%
same,percent Bodipy-positive cells,[2],12.4 ± 4.2%
O=C(c1cc(Cc2n[nH]c(=O)c3ccccc23)ccc1F)N1CCN(C(=O)C2CC2)CC1 [Olaparib],percent Bodipy-positive cells,[4],25.3 ± 16%
same,percent Bodipy-positive cells,[5],26.8 ± 17%
same,percent Bodipy-positive cells,[3],29.5 ± 19%
same,percent Bodipy-positive cells,[2],25.9 ± 17%
O=C1c2ccccc2C(=O)C1c1ccccc1 [Phenindione],percent Bodipy-positive cells,,25.2 ± 5.3%
same,percent Bodipy-positive cells,[1],27.1 ± 7.8%
same,percent Bodipy-positive cells,library stock concentration: 9 mM,4.28 ± 0.017%
same,percent Bodipy-positive cells,[2],18.9% and 17.2%
CC1(C)CC(=O)c2c(ccc(C(=O)CC(N)CO)c2N)O1 (stereo not drawn),percent Bodipy-positive cells,[2],77.4 ± 1.1%
Cc1cc(C=C2C(=O)C=CC2=O)cc(C)c1O,percent Bodipy-positive cells,[4],13.2 ± 11%
same,percent Bodipy-positive cells,[5],29.6 ± 9.4%
same,percent Bodipy-positive cells,[3],84.8 ± 1.6%
same,percent Bodipy-positive cells,[1],84.33 ± 0.17%
O=C(O)CCc1nc(-c2ccccc2)c(-c2ccccc2)o1,percent Bodipy-positive cells,[2],10.4 ± 2.2%
O=C(O)CCc1nc(-c2ccccc2)c(-c2ccccc2)o1 [Oxaprozin],percent Bodipy-positive cells,,8.62 ± 1.8%
same,percent Bodipy-positive cells,[1],8.24 ± 0.78%
same,percent Bodipy-positive cells,library stock concentration: 6.8 mM,9.92 ± 3.4%
NCCCCC(=O)O [5-aminopentanoic acid hydrochloride],percent Bodipy-positive cells,[2],19.3 ± 4.1%
NCCCCC(=O)O [5-Aminovaleric acid hydrochloride],percent Bodipy-positive cells,[2],46.4 ± 8.3%
c1ccc(CC2=NCCN2)cc1 [Tolazoline HCl],percent Bodipy-positive cells,[1],13.9 ± 3%
same,percent Bodipy-positive cells,[2],32.6 ± 12%
c1ccc(CC2=NCCN2)cc1 [Tolazoline hydrochloride],percent Bodipy-positive cells,,38.8 ± 22%
same,percent Bodipy-positive cells,[2],32.5 ± 12%
c1ccc(CC2=NCCN2)cc1 [Priscoline],percent Bodipy-positive cells,[2],37.2 ± 5.5%
OCCN1CCN(CCCN2c3ccccc3Sc3ccc(C(F)(F)F)cc32)CC1 [Fluphenazine hydrochloride],percent Bodipy-positive cells,[2],73.9 ± 16%
OCCN1CCN(CCCN2c3ccccc3Sc3ccc(C(F)(F)F)cc32)CC1,percent Bodipy-positive cells,[2],91.1 ± 7.9%
OCCN1CCN(CCCN2c3ccccc3Sc3ccc(C(F)(F)F)cc32)CC1 [Fluphenazine dihydrochloride],percent Bodipy-positive cells,,69.3 ± 8.1%
same,percent Bodipy-positive cells,[2],100%

# Part of the list above, bar-delimited.
compound | measurement | setting | value
NCCCCC(=O)O [5-Aminovaleric acid hydrochloride] | percent Bodipy-positive cells | [2] | 46.4 ± 8.3%
c1ccc(CC2=NCCN2)cc1 [Tolazoline HCl] | percent Bodipy-positive cells | [1] | 13.9 ± 3%
same | percent Bodipy-positive cells | [2] | 32.6 ± 12%
c1ccc(CC2=NCCN2)cc1 [Tolazoline hydrochloride] | percent Bodipy-positive cells |  | 38.8 ± 22%

# Quoted at random: 2 records from the list, in no set order.
compound,measurement,setting,value
O=C(O)CCc1nc(-c2ccccc2)c(-c2ccccc2)o1 [Oxaprozin],percent Bodipy-positive cells,,8.62 ± 1.8%
O=C(c1cc(Cc2n[nH]c(=O)c3ccccc23)ccc1F)N1CCN(C(=O)C2CC2)CC1,percent Bodipy-positive cells,[2],12.4 ± 4.2%
